From publication PMC7072305
Results are given in words; binding and its absence hold for the method and conditions named. In cells and extracts the contact can be indirect. Some entries that bind do so weakly or less than the wild type. For part of these data: Where a sequence is shown, tags or fusion partners need not be part of it.

B1: Myc-MEX3A (protein, UniProt A1L020 1-520)
chain: MPSLVVSGIMERNGGFGELGCFGGSAKDRGLLEDERALQLALDQLCLLGLGEPPAPTAGEDGGGGGGGAPAQPAAPPQPAPPPPPAAPPAAPTAAPAAQTPQPPTAPKGASDAKLCALYKEAELRLKGSSNTTECVPVPTSEHVAEIVGRQGCKIKALRAKTNTYIKTPVRGEEPVFMVTGRREDVATARREIISAAEHFSMIRASRNKSGAAFGVAPALPGQVTIRVRVPYRVVGLVVGPKGATIKRIQQQTNTYIITPSRDRDPVFEITGAPGNVERAREEIETHIAVRTGKILEYNNENDFLAGSPDAAIDSRYSDAWRVHQPGCKPLSTFRQNSLGCIGECGVDSGFEAPRLGEQGGDFGYGGYLFPGYGVGKQDVYYGVAETSPPLWAGQENATPTSVLFSSASSSSSSSAKARAGPPGAHRSPATSAGPELAGLPRRPPGEPLQGFSKLGGGGLRSPGGGRDCMVCFESEVTAALVPCGHNLFCMECAVRICERTDPECPVCHITATQAIRIFS
B2: endogenous MEX3A (protein, UniProt A1L020 1-520)
chain: MPSLVVSGIMERNGGFGELGCFGGSAKDRGLLEDERALQLALDQLCLLGLGEPPAPTAGEDGGGGGGGAPAQPAAPPQPAPPPPPAAPPAAPTAAPAAQTPQPPTAPKGASDAKLCALYKEAELRLKGSSNTTECVPVPTSEHVAEIVGRQGCKIKALRAKTNTYIKTPVRGEEPVFMVTGRREDVATARREIISAAEHFSMIRASRNKSGAAFGVAPALPGQVTIRVRVPYRVVGLVVGPKGATIKRIQQQTNTYIITPSRDRDPVFEITGAPGNVERAREEIETHIAVRTGKILEYNNENDFLAGSPDAAIDSRYSDAWRVHQPGCKPLSTFRQNSLGCIGECGVDSGFEAPRLGEQGGDFGYGGYLFPGYGVGKQDVYYGVAETSPPLWAGQENATPTSVLFSSASSSSSSSAKARAGPPGAHRSPATSAGPELAGLPRRPPGEPLQGFSKLGGGGLRSPGGGRDCMVCFESEVTAALVPCGHNLFCMECAVRICERTDPECPVCHITATQAIRIFS

Assays:
GFP-RIG-I = target: T1, GFP-RIG-I (UniProt O95786); assay: co-IP; reciprocal co-IP from HEK293T cells co-transfected with GFP-RIG-I and Myc-MEX3A (1:0.5); Triton buffer (50 mM Tris-HCl pH 7.5, 250 mM NaCl, 50 mM NaF, 1 mM EDTA, 0.1% Triton X-100); antibody overnight at 4 °C, Protein agarose beads; immunoblot
T1 sequence: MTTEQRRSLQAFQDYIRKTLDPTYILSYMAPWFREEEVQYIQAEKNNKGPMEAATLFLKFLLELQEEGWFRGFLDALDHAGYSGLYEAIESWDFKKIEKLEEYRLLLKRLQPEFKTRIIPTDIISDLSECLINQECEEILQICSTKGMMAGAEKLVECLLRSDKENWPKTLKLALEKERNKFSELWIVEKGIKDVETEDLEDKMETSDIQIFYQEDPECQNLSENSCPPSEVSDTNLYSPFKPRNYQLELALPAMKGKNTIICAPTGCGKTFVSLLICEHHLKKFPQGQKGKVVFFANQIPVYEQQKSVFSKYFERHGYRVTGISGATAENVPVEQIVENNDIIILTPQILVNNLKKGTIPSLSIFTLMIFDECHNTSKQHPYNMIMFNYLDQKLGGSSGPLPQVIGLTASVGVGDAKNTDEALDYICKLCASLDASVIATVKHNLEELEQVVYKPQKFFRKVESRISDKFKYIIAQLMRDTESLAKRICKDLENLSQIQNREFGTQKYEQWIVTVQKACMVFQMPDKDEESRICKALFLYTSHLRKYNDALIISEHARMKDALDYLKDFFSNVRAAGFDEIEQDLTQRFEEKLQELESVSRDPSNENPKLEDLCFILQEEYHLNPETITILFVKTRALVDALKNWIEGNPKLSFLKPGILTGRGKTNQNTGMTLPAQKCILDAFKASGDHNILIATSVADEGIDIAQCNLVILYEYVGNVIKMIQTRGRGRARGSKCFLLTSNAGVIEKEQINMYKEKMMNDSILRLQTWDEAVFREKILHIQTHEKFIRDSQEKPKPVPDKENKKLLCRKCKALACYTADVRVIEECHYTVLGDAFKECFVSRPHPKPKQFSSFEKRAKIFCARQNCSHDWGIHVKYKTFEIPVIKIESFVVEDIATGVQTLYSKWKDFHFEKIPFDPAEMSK

[1] = target: T2, endogenous RIG-I (human (endogenous in A-172, T98G and GB tissue)) (UniProt O95786); assay: co-IP; endogenous proteins in A-172 and T98G GB cell lines; Triton buffer (50 mM Tris-HCl pH 7.5, 250 mM NaCl, 50 mM NaF, 1 mM EDTA, 0.1% Triton X-100); antibody or control IgG overnight at 4 °C, Protein agarose beads; immunoblot
T2 sequence: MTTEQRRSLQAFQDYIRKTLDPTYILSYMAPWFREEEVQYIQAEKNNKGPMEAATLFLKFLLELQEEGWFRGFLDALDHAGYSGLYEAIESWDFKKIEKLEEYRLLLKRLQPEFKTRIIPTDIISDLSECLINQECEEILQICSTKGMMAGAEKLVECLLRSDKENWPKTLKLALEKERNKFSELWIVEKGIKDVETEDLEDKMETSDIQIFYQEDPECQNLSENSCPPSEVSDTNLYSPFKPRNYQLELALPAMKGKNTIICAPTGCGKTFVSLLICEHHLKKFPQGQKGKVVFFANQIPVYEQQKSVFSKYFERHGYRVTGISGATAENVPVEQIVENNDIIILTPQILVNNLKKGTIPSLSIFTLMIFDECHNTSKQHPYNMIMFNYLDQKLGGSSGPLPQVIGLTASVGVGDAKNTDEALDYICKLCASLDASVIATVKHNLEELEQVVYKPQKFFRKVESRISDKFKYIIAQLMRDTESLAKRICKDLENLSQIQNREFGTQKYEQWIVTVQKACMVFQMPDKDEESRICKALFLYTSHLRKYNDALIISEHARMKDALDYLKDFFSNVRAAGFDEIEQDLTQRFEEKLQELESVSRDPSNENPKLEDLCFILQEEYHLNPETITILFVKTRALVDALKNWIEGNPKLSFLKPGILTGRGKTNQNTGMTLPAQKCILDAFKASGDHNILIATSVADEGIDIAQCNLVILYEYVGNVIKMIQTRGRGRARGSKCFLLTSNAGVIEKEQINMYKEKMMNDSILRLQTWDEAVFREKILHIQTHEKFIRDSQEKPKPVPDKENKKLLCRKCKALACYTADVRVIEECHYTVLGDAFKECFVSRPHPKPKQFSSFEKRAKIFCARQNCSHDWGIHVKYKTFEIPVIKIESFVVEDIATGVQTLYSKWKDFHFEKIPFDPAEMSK

[2] = target: T2, endogenous RIG-I (human (endogenous in A-172, T98G and GB tissue)); assay: co-IP; endogenous proteins in a GB clinical sample, mechanically disrupted in Triton buffer, sonicated, centrifuged; immunoprecipitation and immunoblot as for cells

| Binder | binding (GFP-RIG-I) | binding [1] | binding [2] |
| --- | --- | --- | --- |
| B1 | binds | – | – |
| B2 | – | binds | binds |
